# Assay results reported in paper PMC9722938.
# Results are given in words; binding and its absence hold for the method and conditions named. In cells and extracts the contact can be indirect. Some entries that bind do so weakly or less than the wild type. For some assays here: Where a sequence is shown, tags or fusion partners need not be part of it.
# Tests used:
# [1] = target: YAP (human (endogenous in ESCC cells)), P46937; experiment: co-IP; endogenous proteins in ESCC cell lysate, NP-40 buffer, Protein A/G magnetic beads, IP with anti-USP36 or anti-YAP overnight at 4 °C, IgG as negative control; conditions: remark: other sources report otherwise
# Myc-YAP (human), P46937 = experiment: co-IP; cells transfected with Myc-YAP and Flag-tagged wild-type or truncated USP36, NP-40 lysate, IP with anti-Myc (YAP), blot for Flag; conditions: remark: other sources report otherwise
binding [1],"binding (Myc-YAP (human), P46937)",Binder
binds,–,"USP36, Q9P275 1-1123 (enzyme) MPIVDKLKEALKPGRKDSADDGELGKLLASSAKKVLLQKIEFEPASKSFSYQLEALKSKYVLLNPKTEGASRHKSGDDPPARRQGSEHTYESCGDGVPAPQKVLFPTERLSLRWERVFRVGAGLHNLGNTCFLNATIQCLTYTPPLANYLLSKEHARSCHQGSFCMLCVMQNHIVQAFANSGNAIKPVSFIRDLKKIARHFRFGNQEDAHEFLRYTIDAMQKACLNGCAKLDRQTQATTLVHQIFGGYLRSRVKCSVCKSVSDTYDPYLDVALEIRQAANIVRALELFVKADVLSGENAYMCAKCKKKVPASKRFTIHRTSNVLTLSLKRFANFSGGKITKDVGYPEFLNIRPYMSQNNGDPVMYGLYAVLVHSGYSCHAGHYYCYVKASNGQWYQMNDSLVHSSNVKVVLNQQAYVLFYLRIPGSKKSPEGLISRTGSSSLPGRPSVIPDHSKKNIGNGIISSPLTGKRQDSGTMKKPHTTEEIGVPISRNGSTLGLKSQNGCIPPKLPSGSPSPKLSQTPTHMPTILDDPGKKVKKPAPPQHFSPRTAQGLPGTSNSNSSRSGSQRQGSWDSRDVVLSTSPKLLATATANGHGLKGNDESAGLDRRGSSSSSPEHSASSDSTKAPQTPRSGAAHLCDSQETNCSTAGHSKTPPSGADSKTVKLKSPVLSNTTTEPASTMSPPPAKKLALSAKKASTLWRATGNDLRPPPPSPSSDLTHPMKTSHPVVASTWPVHRARAVSPAPQSSSRLQPPFSPHPTLLSSTPKPPGTSEPRSCSSISTALPQVNEDLVSLPHQLPEASEPPQSPSEKRKKTFVGEPQRLGSETRLPQHIREATAAPHGKRKRKKKKRPEDTAASALQEGQTQRQPGSPMYRREGQAQLPAVRRQEDGTQPQVNGQQVGCVTDGHHASSRKRRRKGAEGLGEEGGLHQDPLRHSCSPMGDGDPEAMEESPRKKKKKKRKQETQRAVEEDGHLKCPRSAKPQDAVVPESSSCAPSANGWCPGDRMGLSQAPPVSWNGERESDVVQELLKYSSDKAYGRKVLTWDGKMSAVSQDAIEDSRQARTETVVDDWDEEFDRGKEKKIKKFKREKRRNFNAFQKLQTRRNFWSVTHPAKAASLSYRR"
–,binds,"USP36-Flag, Q9P275 1-1123 (enzyme) MPIVDKLKEALKPGRKDSADDGELGKLLASSAKKVLLQKIEFEPASKSFSYQLEALKSKYVLLNPKTEGASRHKSGDDPPARRQGSEHTYESCGDGVPAPQKVLFPTERLSLRWERVFRVGAGLHNLGNTCFLNATIQCLTYTPPLANYLLSKEHARSCHQGSFCMLCVMQNHIVQAFANSGNAIKPVSFIRDLKKIARHFRFGNQEDAHEFLRYTIDAMQKACLNGCAKLDRQTQATTLVHQIFGGYLRSRVKCSVCKSVSDTYDPYLDVALEIRQAANIVRALELFVKADVLSGENAYMCAKCKKKVPASKRFTIHRTSNVLTLSLKRFANFSGGKITKDVGYPEFLNIRPYMSQNNGDPVMYGLYAVLVHSGYSCHAGHYYCYVKASNGQWYQMNDSLVHSSNVKVVLNQQAYVLFYLRIPGSKKSPEGLISRTGSSSLPGRPSVIPDHSKKNIGNGIISSPLTGKRQDSGTMKKPHTTEEIGVPISRNGSTLGLKSQNGCIPPKLPSGSPSPKLSQTPTHMPTILDDPGKKVKKPAPPQHFSPRTAQGLPGTSNSNSSRSGSQRQGSWDSRDVVLSTSPKLLATATANGHGLKGNDESAGLDRRGSSSSSPEHSASSDSTKAPQTPRSGAAHLCDSQETNCSTAGHSKTPPSGADSKTVKLKSPVLSNTTTEPASTMSPPPAKKLALSAKKASTLWRATGNDLRPPPPSPSSDLTHPMKTSHPVVASTWPVHRARAVSPAPQSSSRLQPPFSPHPTLLSSTPKPPGTSEPRSCSSISTALPQVNEDLVSLPHQLPEASEPPQSPSEKRKKTFVGEPQRLGSETRLPQHIREATAAPHGKRKRKKKKRPEDTAASALQEGQTQRQPGSPMYRREGQAQLPAVRRQEDGTQPQVNGQQVGCVTDGHHASSRKRRRKGAEGLGEEGGLHQDPLRHSCSPMGDGDPEAMEESPRKKKKKKRKQETQRAVEEDGHLKCPRSAKPQDAVVPESSSCAPSANGWCPGDRMGLSQAPPVSWNGERESDVVQELLKYSSDKAYGRKVLTWDGKMSAVSQDAIEDSRQARTETVVDDWDEEFDRGKEKKIKKFKREKRRNFNAFQKLQTRRNFWSVTHPAKAASLSYRR"
